Data: patent US10383938B2 (priority 2010, dated 2019)
At least one compound was matched to its structure with a doubt left.

Legend:
[1] = test system: systemic tumor necrosis factor (TNF); experiment: Systemic TNF induction in vivo after subcutaneous injection (Example 4); conditions: mice, 1 mg/Kg, summary of Table 3
Method: The resiquimod preparation was made as an aqueous suspension in PBS.
At one hour and at three hours post dose, the mice were bled and systemic TNF was measured in the serum (pg/mL) by ELISA assay. The results are presented as the geometric means obtained for each group of five animals. […] This can be important in providing localized immune system enhancement without systemic TNF side effects.

TNF protein = experiment: Local in vivo activity: serum TNF protein by ELISA (Example 11); set-up: species or system Balb/c male mice; conditions: s.c. 1.0 mg/kg; 18 hours post dose; mean (s.d.) of 4 mice; not detected = less than 10 pg/ml
Method: The final dose for either compound was 1.0 mg/kg. At each time point, the mice were bled, sacrificed, and the draining axial and brachial lymph nodes were removed and placed in RNA preservation fluid (RNA later reagent obtained from Ambion Corporation, Austin, Tex.). Serum samples were analyzed for TNF protein concentration (pg/ml) by ELISA as a measure of systemic presence of this cytokine. The draining lymph nodes were processed for measurement of TNF mRNA gene expression by quantitative PCR (7900HT Thermocycler obtained from Applied Biosystems, Carlsbad, Calif.). The data reported (Table 10) is the mean+/−standard deviation (s.d.) for each group. The “not detected” level for serum TNF concentration was less than 10 pg/ml.

CCOCc1nc2c(N)nc3ccccc3c2n1CC(C)(C)O [Resiquimod, resiquimod, reference compound]
systemic TNF response (in words) [1]: induces a systemic TNF response
Serum TNF [pg/ml (s.d.)] (TNF protein): not detected
